Experimental data published in patent publication US20260206763A1, “AMIDE COMPOUNDS OR SALTS THEREOF, BACTERICIDAL AGENTS FOR AGRICULTURE AND HORTICULTURE CONTAINING SAID COMPOUNDS, AND METHOD OF USING SAME” (NIHON NOHYAKU CO., LTD., priority 2022, published 2026).
Some of these results come from one statement about several compounds together.

Columns and labels:
Format in all cases: cell-based
Sclerotinia sclerotirum = system: Sclerotinia sclerotirum
[1] = system: Colletotrichum gloeosporioides
Septoria tritici = system: Septoria tritici
Colletotrichum acutatum = system: Colletotrichum acutatum
Fusarium graminearum = details: (e) Fusarium graminearum, absorbance
Fusarium virguliforme = system: Fusarium virguliforme

SMILES	median effective concentration (EC50), mycelium growth inhibitory activity (Sclerotinia sclerotirum)	median effective concentration (EC50), mycelium growth inhibitory activity (Septoria tritici)	also measured
NS(=O)(=O)c1ccc(C2(C(=O)NCc3ccccn3)CC2(Cl)Cl)cc1 (racemic) [I-A-95]	≤ 200 ppm		
CC(C)(C)c1ccc(C2(C(=O)NCc3ccccn3)CC2(Cl)Cl)cc1 (centres unmarked) [I-A-101]		≤ 200 ppm	median effective concentration (EC50), spore germination inhibitory activity [1]: ≤ 200 ppm; median effective concentration (EC50), spore germination inhibitory activity (Colletotrichum acutatum): ≤ 200 ppm; median effective concentration (EC50), spore germination inhibitory activity (Fusarium graminearum): ≤ 200 ppm; median effective concentration (EC50), spore germination inhibitory activity (Fusarium virguliforme): ≤ 200 ppm
CN(C)C(=O)c1ccc(C2(C(=O)NCc3ccccn3)CC2(Cl)Cl)cc1 (centres unmarked) [I-A-130]	≤ 200 ppm		
CC(C)(C)C(=O)Nc1ccc(C2(C(=O)NCc3ccccn3)CC2(Cl)Cl)cc1 (centres unmarked) [I-A-163]	≤ 200 ppm		
Cc1ccc(CNC(=O)C2(c3ccc(I)cc3)CC2(Cl)Cl)nc1 (centres unmarked) [I-A-257]		≤ 200 ppm	
Cc1ccc(CNC(=O)C2(c3ccc(-c4ccccc4F)cc3)CC2(Cl)Cl)nc1 (centres unmarked) [I-A-261]		≤ 200 ppm	
Cc1ccc(CNC(=O)C2(c3ccc(C4=CCCC4)cc3)CC2(Cl)Cl)nc1 (centres unmarked) [I-A-267]		≤ 200 ppm	
Cc1ccc(CNC(=O)C2(c3ccc(C4=CCCCC4)cc3)CC2(Cl)Cl)nc1 (centres unmarked) [I-A-268]		≤ 200 ppm	
COCN(Cc1ccccn1)C(=O)C1(c2ccc(OCc3ccccn3)cc2)CC1(Cl)Cl (centres unmarked) [I-A-369]	≤ 200 ppm		
COCN(Cc1ccccn1)C(=O)C1(c2ccc(OCc3ccncc3)cc2)CC1(Cl)Cl (centres unmarked) [I-A-374]	≤ 200 ppm		
